The assay in a line: qHTS Assay for Lipid Storage Modulators in Drosophila S3 Cells.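 On cell number change: cells counted by Cell Tracker Red CMTPX staining in the red channel.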 Conditions: BODIPY lipid droplet fluorescence, 18-24 h; for cell number change: measured here: cell count max response, cells fed with added oleic acid. The gist of the method: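 Laser-scanning cytometry quantifies lipid droplet accumulation (500–530 nm total intensity; droplet/cell object ratio) in oleic acid-fed (400 uM added) Drosophila S3 cells treated with a concentration series. 20 uM Triacsin C defined 100% inhibition.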

Setting [1] is: measured here: lipid fluorescence (Fed channel) AC50, cells fed with added oleic acid.
Setting [2] is: measured here: cell number channel AC50, cells fed with added oleic acid.

Structures are written as SMILES. This is one part of the list. Further columns of the screen follow, without active or inactive calls. Compounds called inactive in the main read-out are mostly missing here. Potencies come from curve fits of mixed quality, noted in brackets.

One may read the AC50 as the midpoint of the concentration-response curve, whichever way the signal moves. As for `O=C(/C=C/c1ccccc1)N(Cc1cccc(Cl)c1)C1CCS(=O)(=O)C1` (stereo not given), the AC50 under setting [1] is 0.00461 µM [rising, full curve, poor fit].

With `Cc1cc(C)cc(NC(=O)CSc2nnc(CNC(=O)c3ccco3)n2C)c1`, the cell number change turned out to be 16.7%. In addition, the half-maximal activity concentration (AC50) under setting [2] was 0.461 µM [falling, full curve]. Moreover, the AC50 under setting [1] was 0.517 µM [falling, full curve].

`COc1ccc(-c2cc3ncccc3cn2)cc1`: the cell number change is -8.15%. The AC50 under setting [2] was 1.3 µM [falling, single point]. Also, the AC50 under setting [1] was 1.16 µM [falling, single point].

As for `CCCS(=O)(=O)c1cscc1NC(=O)c1c(-c2c(F)cccc2Cl)noc1C`, the cell number change came to 7.74%.

`CC(C(=O)NCc1ccccn1)N1C(=O)c2ccccc2C1=O` (stereo not given): the cell number change was -8.7%. Further, the concentration at half-maximal activity (AC50) under setting [2] was 1.46 µM [falling, partial curve]. Also, the AC50 under setting [1] was 1.64 µM [falling, partial curve].

Regarding `Cc1nc(NC(C)c2ccccc2)c2oc3ccccc3c2n1` (stereo not given), the cell number change is -40.8%.

In the case of `Cn1nnnc1SCc1cccc(CSc2nnnn2C)n1`, the cell number change is -2.83%. In addition, the AC50 under setting [1] is 2.59 µM [rising, single point].

As for `Cc1ccccc1CSc1nnc2ccc(-c3ccncc3)nn12`, the cell number change was -3.63%. For the same compound, the AC50 under setting [1] was 0.0058 µM [falling, full curve, poor fit].

On to `CCN(C(=O)CSc1nnc(C(C)N(C)C)n1-c1ccc(F)cc1)C1CCS(=O)(=O)C1` (stereo not given), for which the cell number change was found to be 12.7%. Further, under setting [1], the AC50 was 0.116 µM [rising, full curve, poor fit].

On to `Cc1cccc(C(=O)NC(=S)Nc2cccc3nc(C)ccc23)c1`, for which the cell number change was -26.5%. Also, the AC50 under setting [1] is 29.1 µM [falling, single point].

Consider `Cc1cc(C)c(S(=O)(=O)NCc2cccnc2)cc1C`, for which the AC50 under setting [1] was 6.51 µM [falling, single point].

As to `O=C(Oc1cccc([N+](=O)[O-])c1)C1CCN(C(=O)c2ccc(F)cc2)CC1`, the AC50 under setting [2] was 4.11 µM [rising, partial curve, poor fit].

`CCn1cc(/C=N\NC(=O)Cc2ccc([N+](=O)[O-])cc2)c(C)n1`: the cell number change amounted to 24.4%. In addition, the AC50 under setting [1] is 0.731 µM [rising, full curve, poor fit].

`O=C(NCCCCCCNC(=O)NCc1ccco1)NCc1ccco1`: the cell number change is 15%. The half-maximal activity concentration (AC50) under setting [1] is 1.46 µM [falling, full curve].

As to `CN(C)CCCNC(=O)c1ccc(Oc2ccccc2)cc1`, the cell number change was 56.6%. The AC50 under setting [2] was 6.51 µM [falling, single point].

On to `CCOc1cc(S(=O)(=O)N2CCN=C2Cc2ccccc2)ccc1F`, for which the cell number change worked out at 2.89%. Also, under setting [1], the half-maximal activity concentration (AC50) was 3.26 µM [rising, full curve].

In the case of `COc1ccc(C(C)=O)cc1COC(=O)c1cc2ccccc2cc1O`, the concentration at half-maximal activity (AC50) under setting [1] is 29.1 µM [falling, single point].

On to `O=C(NCc1ccco1)c1cc(S(=O)(=O)N2CCCC2)ccc1Cl`, for which the cell number change was determined as 7.43%.

As to `N#Cc1ccc(COC(=O)c2cnc(Cl)c(Cl)c2)cc1`, the cell number change was 16.2%.

For the compound `CCOC(=O)c1c(C)n(C)c2ccc(OC(=O)c3ccco3)cc12`, the cell number change stood at 109%. Moreover, under setting [2], the AC50 is 29.1 µM [rising, single point]. Also, the AC50 under setting [1] was 6.51 µM [falling, single point].

Consider `COC(=O)C1=C(C)N(Cc2ccccc2)C(=NCc2cc(OC)c(OC)c(OC)c2)N[C@H]1CCc1ccccc1`, for which the cell number change is 7.23%. Moreover, the half-maximal activity concentration (AC50) under setting [1] is 29.1 µM [falling, single point].

For `N#CCCn1cc(/C=N/NC(=O)c2ccncc2)c(-c2ccccc2)n1`, the cell number change was -73.8%. For the same compound, under setting [2], the AC50 is 13 µM [falling, partial curve, poor fit]. For the same compound, the AC50 under setting [1] is 16.4 µM [falling, partial curve].

Consider `Cc1ccc(N2CC(C(=O)OCC(=O)c3ccc([N+](=O)[O-])cc3)CC2=O)cc1` (stereo not given), for which the cell number change was -24.8%.

Turning to `Nc1cc(=O)[nH]c(SCc2nnc(-c3ccccc3)o2)n1`, the cell number change was -8.13%. For the same compound, the concentration at half-maximal activity (AC50) under setting [1] was 0.58 µM [falling, full curve, poor fit].

As for `CCOC(=O)CN(c1ccccn1)S(=O)(=O)c1ccccc1`, the cell number change amounted to 3.8%. In addition, the half-maximal activity concentration (AC50) under setting [1] is 2.91 µM [rising, single point].

For the compound `Cc1cccc(NC(=O)CCC(=O)N/N=C/c2cccnc2)c1`, the cell number change was 41.6%. Further, the AC50 under setting [2] is 29.1 µM [rising, partial curve, poor fit]. Besides, the AC50 under setting [1] is 5.17 µM [rising, single point].

As to `Cc1ccc(Cn2c3ccccc3c3cn[nH]c(=O)c32)cc1`, the cell number change was -3.92%. Also, the half-maximal activity concentration (AC50) under setting [1] was 29.1 µM [falling, single point].

`COc1cc(NC(=O)CN2C(=O)C(c3ccccc3)=NC2(C)C)cc(OC)c1`: the cell number change amounted to 8.75%. In addition, under setting [2], the concentration at half-maximal activity (AC50) was 0.82 µM [rising, full curve, poor fit].

Take `O=C(Nc1ccc(NS(=O)(=O)c2ccccc2)cc1)c1ccccc1`: the cell number change is 169%. Under setting [2], the AC50 was 20.6 µM [rising, partial curve]. The AC50 under setting [1] is 6.51 µM [rising, single point].

As to `Cc1[nH]n(-c2ccccc2)c(=O)c1N=Nc1ccc(F)cc1`, the cell number change is -47.8%. Under setting [2], the AC50 was 16.4 µM [falling, single point]. Under setting [1], the half-maximal activity concentration (AC50) was 13 µM [falling, partial curve].

For `CSC1=NCCN1S(=O)(=O)c1ccc(C)cc1`, the cell number change came out at 35.5%. The half-maximal activity concentration (AC50) under setting [2] is 32.6 µM [rising, single point]. Besides, the AC50 under setting [1] is 29.1 µM [rising, single point].

For the compound `O=C(NC1CCCC1)c1c[nH]c2ccc(F)cc2c1=O`, the cell number change is 4.8%. Under setting [1], the AC50 was 0.58 µM [falling, single point].

As to `Cc1ccn2c(NC3CCCC3)c(-c3cccs3)nc2c1`, the cell number change was 2.16%. For the same compound, the half-maximal activity concentration (AC50) under setting [1] was 0.00461 µM [falling, full curve, poor fit].

Regarding `COC(=O)[C@H](CCSC)NC(=O)Cn1ccc(NC(=O)OCc2ccccc2)nc1=O`, the cell number change is -16.6%. For the same compound, the half-maximal activity concentration (AC50) under setting [1] was 0.517 µM [rising, partial curve].

As for `COc1ccc(C(=O)NCCCSc2ccccc2)cc1F`, the cell number change is 59.5%. Also, the half-maximal activity concentration (AC50) under setting [2] is 8.2 µM [rising, partial curve]. Also, the concentration at half-maximal activity (AC50) under setting [1] was 4.61 µM [rising, full curve].

Regarding `Cc1cc(S(=O)(=O)N2CCOCC2)ccc1NC(=O)c1ccc(F)cc1`, the cell number change worked out at 3.28%. Also, under setting [1], the concentration at half-maximal activity (AC50) is 6.51 µM [rising, single point].

In the case of `CCOC(=O)[C@@H]1[C@H]2COc3cc(OC)ccc3[C@@H]2N2C(=O)N(c3ccc(C(F)(F)F)cc3)C(=O)[C@@]12C`, the cell number change was 15%. For the same compound, the half-maximal activity concentration (AC50) under setting [1] is 0.13 µM [falling, full curve, poor fit].

Source of the values: PubChem BioAssay AID2685 (National Center for Advancing Translational Sciences (NCATS), 2010).
